{"sequences": {"note": "The chains behind the UniProt entries cited, without tags or fusion partners. Where a name states a change or a piece, a line headed by the entry shows the natural chain unless it says otherwise.", "UniProt P18054": "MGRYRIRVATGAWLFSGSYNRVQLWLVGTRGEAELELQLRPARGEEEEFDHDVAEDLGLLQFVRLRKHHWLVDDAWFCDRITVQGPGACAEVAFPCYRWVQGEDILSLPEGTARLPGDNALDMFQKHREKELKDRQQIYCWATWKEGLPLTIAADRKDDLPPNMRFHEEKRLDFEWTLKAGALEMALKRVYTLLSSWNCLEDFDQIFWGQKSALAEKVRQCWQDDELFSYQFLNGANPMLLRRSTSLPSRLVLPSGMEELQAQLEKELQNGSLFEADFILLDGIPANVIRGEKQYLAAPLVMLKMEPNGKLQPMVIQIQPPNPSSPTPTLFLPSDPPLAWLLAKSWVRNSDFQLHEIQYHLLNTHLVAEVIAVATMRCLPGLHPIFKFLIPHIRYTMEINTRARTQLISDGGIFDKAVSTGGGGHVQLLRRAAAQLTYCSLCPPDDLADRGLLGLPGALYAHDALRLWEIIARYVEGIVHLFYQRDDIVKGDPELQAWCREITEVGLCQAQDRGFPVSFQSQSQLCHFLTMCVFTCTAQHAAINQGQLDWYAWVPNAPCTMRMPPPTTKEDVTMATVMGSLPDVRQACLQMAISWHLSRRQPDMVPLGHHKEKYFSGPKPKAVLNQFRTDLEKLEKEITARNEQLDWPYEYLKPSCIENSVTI"}, "source": "PubChem BioAssay AID1671190", "about": "(National Center for Advancing Translational Sciences (NCATS), 2021)", "note": "Several values for one entry are separate records, joined by “and”; a condition that tells them apart may be missing. Equal values may be shown once. In all, about 580,000 compounds went through this assay and about 6,100 (1.1%) were called active. Inconclusive results, whose numbers are uncertain, are shown with a selection of clear calls. Calls come from the whole dose curve; as a rule, active = well fitted inhibition curve with a large enough effect; inconclusive = small, poorly fitted or top-dose-only effect, or another doubt; inactive = no such curve, though single readings can be large or run the other way. Potencies of inconclusive entries are doubtful fits and often do not repeat. % is set by controls: 0 for no effect and ±100 for the full control effect; potency is the fitted concentration of half-maximal effect."}
{"target": "Polyunsaturated fatty acid lipoxygenase ALOX12 (Homo sapiens) (UniProt P18054)", "experiment": "Primary qHTS assay for inhibitors of human arachidonate 12S-lipoxygenase (ALOX12): Round 2", "conditions": "purified 12hLO, xylenol orange hydroperoxide absorbance; activity change, negative = inhibition: at 108 µM (top of the series) unless noted", "summary_of_the_method": "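Purified human 12hLO at 150 nM in 25 mM Hepes, 0.01% Triton X-100, pH 7.0, preincubated 15 min at room temperature with compound. Reaction started with 40 uM arachidonic acid, 30 min at room temperature. Hydroperoxide measured by Fe-xylenol orange, 573/405 nm absorbance ratio.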"}
{"smiles": "CC(C)CCN1C(N(C)C)=NC[C@@H]1C", "Potency": "inconclusive: 3.98 µM [inhibitor, full curve, poor fit]"}
{"smiles": "COC(=O)c1c(NC(=O)CS(=O)(=O)c2ccc(C)cc2)sc2c1CCCC2", "Potency": "inconclusive: 0.251 µM [inhibitor, full curve, poor fit]"}
{"smiles": "O=C(CN1CCn2nc(C(O)CO)cc2C1)Nc1ccc(Cl)cn1", "note": "(stereo not given)", "Potency": "inconclusive: 7.08 µM [inhibitor, full curve, poor fit]"}
{"smiles": "Cc1c(Cl)cccc1NC(=O)CCN1C(=O)c2ccccc2Sc2ncccc21", "Potency": "inconclusive: 89.1 µM [inhibitor, partial curve, poor fit]"}
{"smiles": "CC1(c2ccccc2)N(Cc2cccnc2)C(=O)OC12CCN(Cc1ccccc1)CC2", "note": "(stereo not given)", "activity change, negative = inhibition": "inactive: 24.9% [at 176 µM]"}
{"smiles": "Cn1c(Cn2cccn2)nnc1C1CCCN(C(=O)Cc2cccnc2)C1", "note": "(stereo not given)", "Potency": "inconclusive: 50.1 µM [inhibitor, partial curve, poor fit]"}
{"smiles": "O=C(Nc1cccc(Cl)c1)c1ccc(F)c(S(=O)(=O)N2CCC3(CC2)OCCO3)c1", "Potency": "inconclusive: 112 µM [inhibitor, partial curve, poor fit]"}
{"smiles": "Cc1cc(NC(=O)CCNS(=O)(=O)c2ccc3c(c2)oc(=O)n3C)ccc1Br", "Potency": "inconclusive: 126 µM [inhibitor, single point]"}
{"smiles": "CCN(C(=O)Cn1nnc2sc(-c3ccccc3)cc2c1=O)c1cccc(C)c1", "Potency": "inconclusive: 63.1 µM [inhibitor, partial curve, poor fit]"}
{"smiles": "CCCCOC(=O)c1nc2ccccc2nc1Nc1cccc(OC)c1", "Potency": "active: 6.31 µM"}
{"smiles": "O=C1CC(c2ccc(O)cc2)Oc2cc(O)ccc21", "note": "(stereo not given)", "Potency": "inconclusive: 89.1 µM [inhibitor, single point]"}
{"smiles": "CNc1snc(C)c1C(=O)N(C)CCOc1ccccc1Cl", "activity change, negative = inhibition": "inactive: 1.02%"}
{"smiles": "CCCSC1=C(C#N)C(c2ccc(CC)cc2)CC(=O)N1", "note": "(stereo not given)", "Potency": "inconclusive: 25.1 µM [inhibitor, partial curve, poor fit]"}
{"smiles": "O=C(NCCOc1ccccc1)c1cc(C(=O)NCCOc2ccccc2)cc([N+](=O)[O-])c1", "activity change, negative = inhibition": "inactive: -12%"}
{"smiles": "O=C(NC1CCCCC1)N1Cc2[nH]cnc2C[C@H]1c1nc(-c2ccncc2)no1", "Potency": "active: 12.6 µM"}
{"smiles": "COCC(C)n1c(COc2ccccc2F)nnc1SCC(=O)OC(C)(C)C", "note": "(stereo not given)", "Potency": "inconclusive: 70.8 µM [inhibitor, partial curve, poor fit]"}
{"smiles": "O=C(C1CCN(CCCc2ccccc2)CC1)N(CCc1ccccc1)Cc1ccccc1", "Potency": "inconclusive: 5.62 µM [inhibitor, full curve]"}
{"smiles": "CCn1c(CCNC(=O)c2ccc(OC)cc2)nnc1SCc1ccc(Cl)cc1Cl", "activity change, negative = inhibition": "inconclusive: -30.9% [inhibitor]"}
{"smiles": "O=C(/C=C/NCC(=O)c1ccccc1)c1ccc(Br)cc1", "Potency": "inconclusive: 50.1 µM [inhibitor, partial curve, poor fit]"}
{"smiles": "O=C(Nc1ccc(F)cc1F)c1cc2nc(-c3ccco3)cc(C(F)(F)Cl)n2n1", "Potency": "inconclusive: 44.7 µM [inhibitor, partial curve, poor fit]"}
{"smiles": "Cc1cc2oc(=O)cc(CSc3cccc(C(F)(F)F)c3)c2cc1C(C)C", "Potency": "inconclusive: 44.7 µM [inhibitor, partial curve, poor fit]"}
{"smiles": "CC1(C(=O)N2CCCCC2)CCN1C(=O)c1ccccc1CCc1ccccc1", "note": "(stereo not given)", "Potency": "inconclusive: 112 µM [inhibitor, single point]"}
{"smiles": "CC1CCN(C(=S)c2ccc([N+](=O)[O-])cc2)CC1", "Potency": "inconclusive: 50.1 µM [inhibitor, partial curve, poor fit]"}
{"smiles": "c1ccc(-c2ccc3c(c2)NCCN3)cc1", "Potency": "inconclusive: 50.1 µM [inhibitor, partial curve, poor fit]"}
{"smiles": "Cc1ccc(-c2cc(C(=O)O)c3cc(Cl)ccc3n2)o1", "Potency": "active: 7.94 µM and inconclusive: 17.8 µM [inhibitor, full curve]"}
{"smiles": "O=S(=O)(c1ccccc1)N1CCN(CC2CC3C=CC2C3)CC1", "note": "(stereo not given)", "Potency": "inconclusive: 5.62 µM [inhibitor, full curve, poor fit]"}
{"smiles": "COc1ccccc1/C=C/C(=O)c1cc(F)ccc1OC(=O)c1ccccc1", "activity change, negative = inhibition": "inactive: -14.4%"}
{"smiles": "CCCCn1nc(C(=O)N(C)C2CCS(=O)(=O)C2)c2ccccc2c1=O", "note": "(stereo not given)", "Potency": "inconclusive: 89.1 µM [inhibitor, partial curve, poor fit]"}
{"smiles": "S=c1[nH]nc(CSCCOc2ccccc2)o1", "Potency": "inconclusive: 89.1 µM [inhibitor, single point]"}
{"smiles": "COc1ccc2nc(NC(=O)C3CCN(C(=O)c4ccco4)CC3)sc2c1", "Potency": "inconclusive: 50.1 µM [inhibitor, partial curve, poor fit]"}
{"smiles": "O=C(COC(=O)COc1ccc(Cl)cc1)NCCCc1ccccc1", "Potency": "inconclusive: 112 µM [inhibitor, single point]"}
{"smiles": "Cc1oc(-c2ccccc2)nc1CN(CC(N)=O)C(C)C", "activity change, negative = inhibition": "inactive: -1.08%"}
{"smiles": "Cc1ccc(C)c(C(=O)CCC(=O)NC23CC4CC(CC(C4)C2)C3)c1", "Potency": "inconclusive: 39.8 µM [inhibitor, partial curve, poor fit]"}
{"smiles": "COc1ccc(CCNC(=O)c2ccc3c(c2)N(Cc2ccc(F)cc2)CCS3)cc1OC", "Potency": "inactive"}
{"smiles": "CC(C(=O)N(C)C1CCS(=O)(=O)C1)N1C(=O)/C(=C/c2cccs2)SC1=S", "note": "(stereo not given)", "Potency": "inconclusive: 20 µM [inhibitor, full curve]"}
{"smiles": "COc1ccc(/C=N/n2c(-c3ccccc3)n[nH]c2=S)cc1", "Potency": "inconclusive: 44.7 µM [inhibitor, partial curve, poor fit]"}
{"smiles": "COCCNc1nc(-c2cc3ccccc3o2)cs1", "Potency": "inconclusive: 44.7 µM [inhibitor, partial curve, poor fit]"}
{"smiles": "Cc1ccc(SCC(=O)OCC(=O)NCc2ccco2)cc1", "Potency": "inconclusive: 100 µM [inhibitor, single point]"}
{"smiles": "CCc1c(C)sc(NC(=O)Cn2nc(C)c([N+](=O)[O-])c2C)c1C(N)=O", "Potency": "inconclusive: 44.7 µM [inhibitor, partial curve, poor fit]"}
{"smiles": "CCCN1C(=O)c2ccccc2NC1c1ccc(C)cc1", "note": "(stereo not given)", "Potency": "inconclusive: 141 µM [inhibitor, single point]"}
{"smiles": "CCCCCCCNC(=O)C1(CC2CC(c3ccccc3)=NO2)CCNCC1", "note": "(stereo not given)", "Potency": "inconclusive: 112 µM [inhibitor, partial curve, poor fit]"}
{"smiles": "Nc1c(N(Cc2ccco2)C(=O)c2ccc(Cl)cc2)c(=O)[nH]c(=O)n1Cc1ccccc1", "activity change, negative = inhibition": "inactive: 144%"}
{"smiles": "Cc1cc2c(c(=O)o1)C(CCC1CCCCC1)C(C#N)=C(N)O2", "note": "(stereo not given)", "Potency": "inconclusive: 112 µM [inhibitor, partial curve, poor fit]"}
{"smiles": "Cc1cc(-c2ccnc(-n3ncc(C(=O)NCC4COCCO4)c3C3CC3)n2)c(C)s1", "note": "(stereo not given)", "Potency": "inconclusive: 112 µM [inhibitor, single point]"}
{"smiles": "O=C(Nc1cccnc1)c1cc(-c2ccc(Cl)c(Cl)c2)on1", "activity change, negative = inhibition": "inactive: 16%"}
{"smiles": "O=C1CCN(S(=O)(=O)c2ccccc2)CCCN(C(=O)c2cccc3[nH]ccc23)CCN1", "activity change, negative = inhibition": "inactive: 20.6%"}
{"smiles": "O=C(O)CSc1cc(NS(=O)(=O)c2ccc(Cl)cc2)c2ccccc2c1O", "Potency": "active: 2.82 µM"}
{"smiles": "S=C(Nc1cccc(Cl)c1)Nc1ccc2cn[nH]c2c1", "Potency": "inconclusive: 20 µM [inhibitor, partial curve]"}
{"smiles": "O=C(CN1CCCN(S(=O)(=O)c2ccc(Br)s2)CC1)Nc1ccc(Cl)cc1", "Potency": "inconclusive: 3.55 µM [inhibitor, full curve, poor fit]"}
{"smiles": "O=C(CSCc1cnn(-c2ccccc2)c1-n1cccc1)NCC1CCCO1", "note": "(stereo not given)", "activity change, negative = inhibition": "inactive: 13.7%"}
{"smiles": "Cc1ccc2[nH]c(=O)c(COC(=O)c3ccccn3)cc2c1", "Potency": "inconclusive: 39.8 µM [inhibitor, partial curve, poor fit] and inconclusive: 5.01 µM [inhibitor, full curve, poor fit]"}
{"smiles": "Nc1nc(SCc2ccccc2)cc(SCc2ccccc2)n1", "activity change, negative = inhibition": "inactive: 4.3%"}
{"smiles": "COc1ccc(S(=O)(=O)c2cc(NS(=O)(=O)c3ccc(Cl)cc3)c(C)c(C)c2O)cc1", "activity change, negative = inhibition": "inactive: -30.6%"}
{"smiles": "Cn1cccc1-c1cc(C(=O)N2CCOCC2CC(=O)Nc2ccccc2)[nH]n1", "note": "(stereo not given)", "activity change, negative = inhibition": "inactive: -7.33%"}
{"smiles": "O=C1c2cnc(-c3cccc(O)c3)nc2OCCN1Cc1ccc(F)cc1F", "Potency": "inconclusive: 22.4 µM [inhibitor, full curve, poor fit]"}
{"smiles": "CC(OC(=O)c1ccncc1)C(=O)Nc1cccc(Cl)c1", "note": "(stereo not given)", "Potency": "inconclusive: 100 µM [inhibitor, single point]"}
{"smiles": "COc1ccc(-c2nc(C#N)c(NCc3ccc4c(c3)OCO4)o2)cc1", "activity change, negative = inhibition": "inactive: -17.7%"}
{"smiles": "Cc1c(C(=O)O)cccc1-c1ccc(C=C(C#N)C#N)o1", "Potency": "inconclusive: 20 µM [inhibitor, partial curve, poor fit]"}
{"smiles": "COCc1cc(=O)n2[nH]c(-c3cccs3)cc2n1", "Potency": "inconclusive: 100 µM [inhibitor, partial curve, poor fit]"}
{"smiles": "COCc1nc(C2CC(N)C2)cc(N2CCN(S(=O)(=O)N(C)C)CC2)n1", "note": "(stereo not given)", "Potency": "inconclusive: 10 µM [inhibitor, full curve]"}
{"smiles": "Cc1ccccc1C(=O)N[C@H](C(=O)N1CCC[C@H]1C(=O)NC1CCCC1)C1CCCCC1", "activity change, negative = inhibition": "inactive: -1.45%"}
{"smiles": "CCOc1cc(S(=O)(=O)n2c(C)nc3ccccc32)ccc1F", "Potency": "inconclusive: 35.5 µM [inhibitor, partial curve, poor fit]"}
{"smiles": "CCONC(=O)c1cc2c(s1)CCC(C(C)(C)C)C2", "note": "(stereo not given)", "Potency": "inconclusive: 126 µM [inhibitor, single point]"}
{"smiles": "CC(C)c1ccc(-c2nonc2NC(=O)c2cc(=O)c3cc(Br)ccc3o2)cc1", "Potency": "inconclusive: 7.08 µM [inhibitor, full curve]"}
{"smiles": "Cc1cc(C(=O)CSc2nc3cc([N+](=O)[O-])ccc3o2)c(C)n1C1CC1", "Potency": "inconclusive: 50.1 µM [inhibitor, partial curve, poor fit]"}
